Source: patent US8048888B2, “Anti-proliferative combination therapy using certain platinum-based chemotherapeutic agents and EGFR inhibitors or pyrimidine analogues” (Agennix AG, priority 2005, dated 2011)
Some of these results come from one statement about several compounds together.

Test system: MX-1 tumor (human breast carcinoma)
Conditions: capecitabine 750 mg/kg PO Q1Dx8
Method: Healthy female SWISS nu/nu mice, 6-7 weeks old, 17-22 g, were obtained from Charles River (L'Arbresle, France). Animals were acclimated for seven days in a specific-pathogen-free (SPF) animal care unit before treatment. MX-1 tumor implants were purchased and provided by Oncodesign (Dijon, France). MX-1 is a human breast carcinoma cell line.
To induce MX-1 tumors in nude mice ten female SWISS nude mice were subcutaneously implanted with thawed fragments of MX-1 tumor 24 hours after whole body irradiation with a γ-source (Co^60, INRA, Dijon, France). Mice were continuously monitored and terminated when tumors reached 700 to 1000 mm^3. Tumors were then surgically excised and homogenous fresh fragments were subcutaneously implanted in the right flanks of 130 SWISS nude mice.
Ninety (90) mice were randomized into 9 groups of 10 mice each.
Suspensions were continuously agitated during administration to mice. […]
During the course of the experiment, viability and behaviour of mice were recorded every day. Mice body weight and tumor volume was recorded twice a week. […]
Tumor growth inhibition (T/C %) is defined as the ratio of the median tumor volume of a given treated group (test or reference substance) versus the equivalent median volume from the control group. T/C % is calculated as follows: […]
Tumor Log cell kill was calculated using the following formula: […]

With CCCCCOC(=O)Nc1nc(=O)n([C@@H]2O[C@H](C)[C@@H](O)[C@H]2O)cc1F [Capecitabine] the “inhibition of tumor growth” value was “moderate (T/C % values ranging from 30 to 70% correspond to a moderate antitumor activity)”.
